Where a name gives a salt, the structure may show the parent alone. Read-outs that look alike come from different tables or passages of the source. The campaign covered roughly 3,300 compounds. About 60 (2%) showed an effect of 50% or more. This is one part of the list. Peptide text beside a SMILES is read from it.

Data on 61 molecules can be found in paper PMC12431657, “Discovery and mechanistic insights of dibenzoylmethane as a broad spectrum inhibitor of coronavirus” (PLOS Pathogens, 2025).

The test system of the experiment is HCoV-OC43. Details: species or system RD; HTS, protection from HCoV-OC43 induced cell death, luminescent cell viability (CellCounting-Lite 2.0), inhibition rate. Conditions: 24 h post infection, 1 h compound pre-incubation, 10 µM, inhibitor.

For `O=c1c(O)c(-c2ccc(O)c(O)c2)oc2cc(O[C@@H]3O[C@H](CO)[C@@H](O)[C@H](O)[C@H]3O)cc(O)c12` [Quercimeritrin], the “OC43 Inhibition rate” value was -1.1%.

On to `CC(C)=CCC/C(C)=C/CC/C(C)=C/CC/C(C)=C/CC1=C(C)C(=O)c2ccccc2C1=O` [Menaquinone-4], for which the “OC43 Inhibition rate” value is given as -0.1%.

Take `CC(=O)N[C@@H]1[C@@H](O)[C@H](O)[C@@H](CO)O[C@@H]1O` [N-Acetyl-D-glucosamine]: the “OC43 Inhibition rate” value was determined as 0%.

In the case of `CN1[C@H]2C[C@H](OC(=O)[C@H](CO)c3ccccc3)C[C@@H]1[C@@H](O)C2` [Anisodamine], the “OC43 Inhibition rate” value (OC43 Inhibition rate, 24 h) is given as 3.1%.

Regarding `CC(C)(O)[C@H](O)COc1c2ccoc2cc2oc(=O)ccc12` [Oxypeucedanin hydrate], the “OC43 Inhibition rate” value is -1.1%.

`Cc1cn([C@H]2C[C@H](O)[C@@H](COP(=O)(O)O)O2)c(=O)[nH]c1=O` [Thymidine-5'-monophosphate (disodium) salt]: the “OC43 Inhibition rate” value is reported as 1.4%.

Take `CCCCCCCC(=O)CCc1ccc(O)c(OC)c1` [Paradol]: the “OC43 Inhibition rate” value stood at 45.1%.

With `CC(=O)N[C@@H](Cc1ccccc1)C(=O)O` [N-Acetyl-L-phenylalanine], the “OC43 Inhibition rate” value was -0.3%.

For `COc1cc2c(cc1OC)-c1cc3ccc4c(c3c[n+]1CC2)OCO4` [Epiberberine (chloride)], the “OC43 Inhibition rate” value was 0.9%.

Consider `CCCCCCCCCCCCCC(=O)OCC(O)CO` (stereo not shown) [1-Monomyristin], for which the “OC43 Inhibition rate” value was -1.3%.

Consider `O=c1c(O[C@@H]2O[C@H](CO)[C@@H](O)[C@H](O)[C@H]2O[C@@H]2OC[C@@H](O)[C@H](O)[C@H]2O)c(-c2ccc(O)cc2)oc2cc(O)cc(O)c12` [Leucoside], for which the “OC43 Inhibition rate” value came to 2.1%.

For the molecule `C[C@@H]1CC[C@@]2(OC1)O[C@H]1C[C@H]3[C@@H]4CC[C@@H]5C[C@@H](O)CC[C@]5(C)[C@H]4CC[C@]3(C)[C@H]1[C@@H]2C` [Smilagenin], the “OC43 Inhibition rate” value is 6.5%.

Consider `CCCCC1OC(=O)c2ccccc21` (stereo not shown) [Butylphthalide], for which the “OC43 Inhibition rate” value was 0.1%.

`NCCS(=O)O` [Hypotaurine]: the “OC43 Inhibition rate” value is -9%.

On to `O=C1c2ccccc2C(=O)c2cc(O)ccc21` [2-Hydroxyanthraquinone], for which the “OC43 Inhibition rate” value was 5.4%.

Consider `C/C=C(/C)C(=O)O[C@H]1C(C)=C[C@]23C(=O)[C@@H](C=C4COC(C)(C)O[C@H]4[C@]12O)[C@H]1[C@@H](C[C@H]3C)C1(C)C` [Ingenol-5,20-acetonide-3-O-angelate], for which the “OC43 Inhibition rate” value is 69.8%.

With `CC[C@@H](C(=O)[C@@H](C)[C@@H](O)[C@H](C)CCc1ccc(C)c(O)c1C(=O)O)[C@H]1O[C@](CC)([C@H]2CC[C@](O)(CC)[C@H](C)O2)C[C@@H]1C` [Lasalocid], the “OC43 Inhibition rate” value (OC43 Inhibition rate, 24 h) is -1.4%.

Consider `C=C1C[C@@]23CC[C@H]4[C@@](C)(CCC[C@@]4(C)C(=O)O[C@@H]4O[C@H](CO)[C@@H](O)[C@H](O)[C@H]4O[C@@H]4O[C@H](CO)[C@@H](O)[C@H](O)[C@H]4O)[C@@H]2CC[C@]1(O[C@@H]1O[C@H](CO)[C@@H](O)[C@H](O[C@@H]2O[C@H](CO)[C@@H](O)[C@H](O)[C@H]2O)[C@H]1O[C@@H]1O[C@H](CO)[C@@H](O)[C@H](O)[C@H]1O)C3` [Rebaudioside D], for which the “OC43 Inhibition rate” value worked out at 1.1%.

Turning to `OCc1ccoc1` [3-Furanmethanol], the “OC43 Inhibition rate” value is on record as -0.5%.

As to `N#CS` [Sodium thiocyanate], the “OC43 Inhibition rate” value turned out to be 3.6%.

For the molecule `O=C(O)CCCCCCCCCCCC(=O)O` [Tridecanedioic acid], the “OC43 Inhibition rate” value was -1.6%.

Take `O=C(/C=C/c1ccc(O)cc1)OC[C@H]1O[C@@H](Oc2c(-c3ccc(O)cc3)oc3cc(O)cc(O)c3c2=O)[C@H](O)[C@@H](O)[C@@H]1O` [Tiliroside]: the “OC43 Inhibition rate” value is 4.5%.

On to `OCCc1ccc(O)cc1` [Tyrosol], for which the “OC43 Inhibition rate” value was -0.1%.

Consider `Oc1cc(O)c2c(c1)O[C@@]1(c3ccc(O)c(O)c3)Oc3cc(O)c4c(c3[C@@H]2[C@H]1O)O[C@H](c1ccc(O)c(O)c1)[C@H](O)[C@H]4c1c(O)cc(O)c2c1O[C@H](c1ccc(O)c(O)c1)[C@H](O)C2` [Cinnamtannin B-1], for which the “OC43 Inhibition rate” value amounted to 0.2%.

Take `COc1ccccc1C(=O)O` [2-Methoxybenzoic acid]: the “OC43 Inhibition rate” value is recorded as 1.2%.

Turning to `CC(C)C12CCC(C)(CC1)O2` [1,4-Cineole], the “OC43 Inhibition rate” value was determined as 0%.

Consider `CC(=O)N[C@@H](C)C(=O)O` [Ac-Ala-OH], for which the “OC43 Inhibition rate” value is given as -2%.

As for `CN(C)[C@@H]1C(O)=C(C(N)=O)C(=O)[C@@]2(O)C(O)=C3C(=O)c4c(O)ccc(Cl)c4[C@@H](O)[C@H]3C[C@@H]12` [Demeclocycline (hydrochloride)], the “OC43 Inhibition rate” value worked out at 48%.

As to `CCCCCCCCC(=O)O` [Nonanoic acid], the “OC43 Inhibition rate” value was determined as 0.8%.

As to `C[C@H](CO[C@@H]1O[C@H](CO)[C@@H](O)[C@H](O)[C@H]1O)[C@H]1CC[C@@]2(CC[C@]3(C)[C@H](CC[C@@H]4[C@@]5(C)CC[C@H](O[C@@H]6O[C@H](CO)[C@@H](O)[C@H](O)[C@H]6O[C@@H]6OC[C@@H](O)[C@H](O)[C@H]6O)[C@@](C)(CO)[C@@H]5CC[C@]43C)[C@H]2O)CO1` [Hosenkoside F], the “OC43 Inhibition rate” value came out at 2.3%.

In the case of `Cc1ncc(CO)c(CO)c1O` [Pyridoxine (hydrochloride)], the “OC43 Inhibition rate” value (OC43 Inhibition rate, 24 h) is given as -0.3%.

`COc1c(O)cc2oc3cc4c(c(O)c3c(=O)c2c1CC=C(C)C)CCC(C)(C)O4` [3-Isomangostin]: the “OC43 Inhibition rate” value is on record as 41.9%.

`Oc1ccc2[nH]ccc2c1` [5-Hydroxyindole]: the “OC43 Inhibition rate” value is 1.1%.

Take `O=C(O)c1cc(O)c(O)c(O)c1` [Gallic acid]: the “OC43 Inhibition rate” value (OC43 Inhibition rate, 24 h) is given as -0.1%.

Turning to `CSCCC(N)C(=O)O` (racemic) [DL-Methionine], the “OC43 Inhibition rate” value is recorded as -2.1%.

Consider `CC(C)CCC(=O)O` [4-Methylpentanoic acid], for which the “OC43 Inhibition rate” value is -0.5%.

Take `CCCCCCC(=O)CCCCCC/C=C/C[C@@H](O)[C@H](O)[C@@](N)(CO)C(=O)O` [Myriocin]: the “OC43 Inhibition rate” value is -0.6%.

Consider `C[C@@]1(C(=O)O)CC[C@]2(C)CC[C@]3(C)C4=CC(=O)c5c(cc(O)c(O)c5C=O)[C@]4(C)CC[C@@]3(C)[C@@H]2C1` [Demethylzeylasteral], for which the “OC43 Inhibition rate” value is reported as 8.5%.

Regarding `C[n+]1cccc(C(=O)[O-])c1` [Trigonelline (chloride)], the “OC43 Inhibition rate” value (OC43 Inhibition rate, 24 h) was determined as 1.2%.

On to `CC(C)=CCc1c2ccoc2c(O)c2oc(=O)ccc12` [Alloimperatorin], for which the “OC43 Inhibition rate” value is recorded as 0.8%.

Consider `CC(=O)OCCc1ccc(O)c(O)c1` [Hydroxytyrosol acetate], for which the “OC43 Inhibition rate” value is recorded as -1%.

Take `O=C(CC(=O)c1ccccc1)c1ccccc1` [DBM, dibenzoylmethane]: the “OC43 Inhibition rate” value turned out to be 102.9%.

As to `COc1ccc2c(=O)cc(-c3ccccc3)oc2c1` [7-Methoxyflavone], the “OC43 Inhibition rate” value was found to be 0%.

On to `C[C@@H]1CC[C@@]2(OC1)O[C@H]1C[C@H]3[C@@H]4CC=C5C[C@@H](O)C[C@@H](O)[C@]5(C)[C@H]4CC[C@]3(C)[C@H]1[C@@H]2C` [Ruscogenin], for which the “OC43 Inhibition rate” value stood at 4.9%.

In the case of `COc1cc(/C=C/C(=O)O[C@@H]2C[C@@](O)(C(=O)O)C[C@@H](O)[C@@H]2O)ccc1O` [3-Feruloylquinic acid], the “OC43 Inhibition rate” value was -3%.

Consider `OC[C@H]1O[C@H](OC[C@H]2O[C@H](O[C@H]3[C@H](O)[C@@H](O)[C@@H](O)O[C@@H]3CO)[C@H](O)[C@@H](O)[C@@H]2O[C@H]2O[C@H](CO)[C@@H](O)[C@H](O)[C@H]2O)[C@H](O)[C@@H](O)[C@@H]1O` [Glycogen, Oysters], for which the “OC43 Inhibition rate” value is listed as -0.3%.

`CC(C)[C@@H]1NC(=O)[C@@H]2CCCN2C(=O)[C@H](C(C)C)NC(=O)CNC(=O)[C@H](C)NC(=O)[C@H](Cc2c[nH]c3ccccc23)NC1=O` [Segetalin A] (cyclo(AGVPVW)): the “OC43 Inhibition rate” value is 0.2%.

For `COc1nccnc1CC(C)C` [2-Isobutyl-3-methoxypyrazine], the “OC43 Inhibition rate” value was -1%.

With `CC(C)(O)CC(=O)O` [3-Hydroxyisovaleric acid], the “OC43 Inhibition rate” value is reported as -0.3%.

In the case of `COC(=O)c1ccc(OC)c(O)c1` [Methyl isovanillate], the “OC43 Inhibition rate” value was 0.2%.

As to `COc1cc2cc(c1Cl)N(C)C(=O)C[C@H](O)[C@]1(C)O[C@H]1[C@H](C)[C@@H]1C[C@@](O)(NC(=O)O1)[C@H](OC)/C=C/C=C(\C)C2` [Maytansinol], the “OC43 Inhibition rate” value was determined as 6.6%.

For `O=C(OCc1ccccc1)c1ccccc1` [Benzyl benzoate], the “OC43 Inhibition rate” value is 4.9%.

As to `C[C@H]1O[C@@H](O[C@H]2CC[C@@]3(C)[C@@H](CC[C@]4(C)[C@@H]3C=C[C@]35OC[C@@]6(CCC(C)(C)C[C@H]63)[C@H](O)C[C@]54C)[C@]2(C)CO)[C@H](O)[C@@H](O[C@@H]2O[C@H](CO)[C@@H](O)[C@H](O)[C@H]2O)[C@H]1O` [Saikosaponin D], the “OC43 Inhibition rate” value was -13.1%.

As to `OC[C@H]1NC[C@@H](O)[C@@H](O)[C@@H]1O` [1-Deoxymannojirimycin (hydrochloride)], the “OC43 Inhibition rate” value turned out to be 3.3%.

Take `NCc1ccc(O)cc1` [4-Hydroxybenzylamine]: the “OC43 Inhibition rate” value stood at 0.1%.

On to `CCCCCCCCCCCCC(=O)O` [Tridecanoic acid], for which the “OC43 Inhibition rate” value is recorded as -0.4%.

For `CC[C@@H]1CN2CC[C@@]3(C(=O)Nc4ccccc43)[C@@H]2C[C@@H]1/C(=C\OC)C(=O)OC` [Corynoxine], the “OC43 Inhibition rate” value is on record as -0.4%.

Turning to `O=C1CC(c2ccc(O)cc2)Oc2ccccc21` (stereo not shown) [4'-Hydroxyflavanone], the “OC43 Inhibition rate” value is on record as 6.4%.

For the molecule `COc1cc(/C=C/c2ccc(O)c(O)c2)cc(OC)c1` [3'-Hydroxypterostilbene], the “OC43 Inhibition rate” value is 0.8%.

As to `CC(C)=CCc1cc(-c2coc3cc(O)cc(O)c3c2=O)cc(O)c1O` [Glycyrrhisoflavone], the “OC43 Inhibition rate” value was determined as 2.1%.

In the case of `C=C(CCC=C(C)C)[C@H]1CC[C@]2(C)[C@@H]1[C@H](O)C[C@@H]1[C@@]3(C)C[C@@H](O)[C@H](O[C@@H]4O[C@H](CO)[C@@H](O)[C@H](O)[C@H]4O[C@@H]4O[C@H](CO)[C@@H](O)[C@H](O)[C@H]4O)C(C)(C)[C@@H]3CC[C@]12C` [Damulin B], the “OC43 Inhibition rate” value was 7.3%.
